# Where “and” joins values, the source holds several entries; their conditions need not be identical. Equal values may be shown once. Hit rate of the full screen: of about 1,500 compounds, about 460 (31%) were called active.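 How the source made its calls: active means viability at or below 80% at any tested concentration, marking the compound as toxic; inactive means the rest.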 This is a selection; strong and weak results do not stand in their true shares. Measured potencies and affinities stand elsewhere.
# Test: THP-1 cell cytotoxicity, dose response, cytotoxicity control for Vif-APOBEC3G degradation inhibitor project, THP-1 cells (AID 1117359)
# Settings: THP-1 viability, CellTiter-Glo luminescence, 72 h; at 40 µM (top of the series)
row,Compound,viability
1,COc1cc(N2C(=O)C=CC2=O)ccc1N1C(=O)C=CC1=O,inactive: 98.3%
2,O=C1NCC(O)=C1C=NC12CC3CC(CC(C3)C1)C2,inactive: 97.2%
3,CC(=O)N1CCN(c2ccc(NCc3ccccc3)cc2)CC1,inactive: 90%
4,O=C1N=NC2=C1c1c3ccccc3c(O)n1CC2,inactive: 102%
5,CCOC(=O)C1=C(O)/C(=C/c2ccc(CNC(=O)C(=O)Nc3ccc(C)cc3)o2)N=C1C,inactive: 91%
6,COC(=O)C1C(O)C(C)C(O)C(C)(O)/C=C\C=C(/C)C(=O)Nc2c(C)c(OC(C)=O)c3c(c2O)C(=O)C(C)=C2OCOC(=C23)/C(C)=C/C(C)(O)C(O)C(C)C1O (stereo not given),inactive: 97.4%
7,O=C(Nc1ccc(Br)cn1)c1coc(=O)c(Br)c1,inactive: 107%
8,Oc1ccc(/C=N/N2CCCCC2)c(O)c1O,inactive: 111%
9,Cc1cc(/C=N/Nc2ccc([N+](=O)[O-])cn2)c(C)n1-c1ccc(C(=O)O)cc1,inactive: 106%
10,COc1ccc(N2C3=C(CC4=C2CCCC4=O)C(=O)CCC3)cc1,inactive: 96.5%
11,CN(C)c1ccc(Cc2cc3c(O)ccc(O)c3cc(Cc3ccc(N(C)C)cc3)c2=O)cc1,inactive: 85.4%
12,CCOC(=O)C1=C(COC(=O)/C=C/c2ccco2)NC(=O)NC1C (stereo not given),inactive: 96.1%
13,O=C1NC(=S)NC1=Cc1ccco1,inactive: 103%
14,CCN(CC(=O)Nc1ccc(NC(C)=O)cc1)C(=O)C1CCCC1,inactive: 121%
15,COc1cc2[nH]c(Cl)c([N+](=O)[O-])c2cc1OC,inactive: 90.3%
16,CC(=O)Nc1ccc(NC(=O)C(C)OC(=O)CCc2c[nH]c3ccccc23)cc1 (stereo not given),inactive: 81.5%
17,NNc1ccc([N+](=O)[O-])c2[nH][nH]c(=O)c12,inactive: 104%
18,COc1cccc(CN2CCNC(=O)C2CC(=O)NCCn2nc(C)cc2C)c1OC (stereo not given),inactive: 93.5%
19,O=c1cc2c(=O)oc3cc(O)c(O)oc3c2c(O)c1O,inactive: 103% and inactive: 83.2%
20,CCCCOc1cccc(C(=O)NC(=S)Nc2ccc(Cl)c(C(=O)O)c2)c1,inactive: 103%
21,Cc1ccc(-n2c(-c3cc(-c4ccco4)[nH]n3)n[nH]c2=S)c(Br)c1,inactive: 104%
22,CCOC(=O)C1Nc2ccc(Br)cc2C2C=CCC12 (stereo not given),inactive: 84.6%
23,COc1cc([N+](=O)[O-])ccc1NC(=O)Oc1ccc(NC(C)=O)cc1,inactive: 93.7%
24,CCOC(=O)C(C)N1C(=O)S/C(=C\c2ccc(-c3ccccc3C(=O)O)o2)C1=O (stereo not given),inactive: 93.5%

row,Compound,viability
1,CC(=O)c1ccccc1NC(=O)COC(=O)CN1C(=O)C2CCCCC2C1=O (stereo not given),inactive: 85.4%
2,CCCOc1ccc(N)cc1N,inactive: 92.5%
3,COC(=O)c1c(NC(=O)COC(=O)c2ccc(NC(=O)CC#N)cc2)sc2c1CCCCC2,inactive: 106%
4,O=C1CCCC(O)=C1N=Nc1cccc(C(=O)O)c1,inactive: 99.9%
5,O=C(NN1C(=O)/C(=C/C=C/c2ccco2)SC1=S)c1ccccc1O,inactive: 107%
6,O=C(Cn1c2[n+](c3ccc(C(F)(F)F)cc31)CCCCC2)Nc1c(F)cccc1F,inactive: 82.4%
7,N[C@@H](Cc1c[nH]c2ccccc12)C(=O)O,inactive: 93%
8,COC(=O)CCC(=O)OC1(C)C(=O)C=C2C=C3CCCN3C=C2C1=O (stereo not given),inactive: 95%
9,O=C1/C(=C/C=C/c2ccco2)SC(=S)N1NS(=O)(=O)c1ccccc1,inactive: 105%
10,CC(=O)c1sc2nc(-c3ccco3)ccc2c1N,inactive: 101%
11,COc1cccc(/C=N/n2c(-c3cc(C)[nH]n3)n[nH]c2=S)c1,inactive: 95%
12,CC1=NN(C(N)=S)C(=O)C1N=Nc1cccc([N+](=O)[O-])c1 (stereo not given),inactive: 102%
13,O=C1CCCC(O)=C1N=Nc1ccc(S(=O)(=O)N2CCOCC2)cc1,inactive: 107%
14,CCOC(=O)C(CC(=O)O)=C(c1ccccc1)c1ccccc1,inactive: 96.4%
15,O=[n+]1c2c(n([O-])c3cc(Br)ccc31)CCC2,inactive: 109%
16,CC(=O)Nc1cc(NC(C)=O)cc(C(=O)N2CCCC3CCCCC32)c1 (stereo not given),inactive: 104%
17,O=C(O)c1cc(N2N=C(C(F)(F)F)/C(=C/C=C/c3ccco3)C2=O)ccc1Cl,inactive: 99.9%
18,Cc1c(N=C2C=C(Br)C(=O)C(Br)=C2)c(=O)n(-c2ccccc2)n1C,inactive: 102%
19,CCOC(=O)N1CCN(S(=O)(=O)c2ccc3c(c2)C(C)C(=O)N3)CC1 (stereo not given),inactive: 86.9%
20,O=C(/C=C/c1ccco1)NC(=S)Nc1ccc(C(=O)O)cc1,inactive: 104%
21,O=C(NCC1CCCO1)c1c(O)c2c([nH]c1=O)CCCC2 (stereo not given),inactive: 86.3%
22,O=c1cc(-c2ccc(O)cc2)oc2c(O)c(O)c(O)c(O)c12,inactive: 90.9%
23,Cc1ccc(C(CC(=O)NCc2ccco2)c2ccccc2)c(O)c1 (stereo not given),inactive: 91.1%
24,COc1ccc(-c2nnc(-c3ccc(N)cc3)o2)cc1,inactive: 89.8%

row,Compound,viability
1,CCC1=NN2C(=N)/C(=C\c3ccc(SCc4ccco4)o3)C(=O)N=C2S1,inactive: 107%
2,CCOC(=O)c1ccc(CC(=O)c2ccc(O)c(O)c2O)o1,inactive: 97.4%
3,NS(=O)(=O)c1ccc(N=Nc2c[nH]c(=O)c(O)c2)cc1,inactive: 87.9% and inactive: 88.2%
4,CN1C(=O)/C(=C/c2ccco2)SC1=Nc1cccc(C(=O)O)c1,inactive: 106%
5,CN(C)NC(=S)NC1CCS(=O)(=O)C1 (stereo not given),inactive: 98.9%
6,CC(Sc1nnc(C2CC2)n1C)C(=O)Nc1ccc(N2CCOCC2)cc1 (stereo not given),inactive: 87.6%
7,O=C(c1ccc(=O)oc1)N1CCCc2ccccc21,inactive: 84.4%
8,Cc1ccc2c(c1C)NC(C(=O)O)C1CC=CC21 (stereo not given),inactive: 99.5% and inactive: 103%
9,CNc1ccc(Br)cc(C(=O)/C=C/c2ccc(Cl)cc2Cl)c1=O,inactive: 94.8%
10,O=C(CCS(=O)(=O)c1ccc(Br)cc1)N1CCN(c2ccc(F)cc2)CC1,inactive: 90.7%
11,Cc1ccnc(N2CCCC(C(=O)Nc3cc(F)ccc3C)C2)n1 (stereo not given),inactive: 104%
12,COc1cc(OC)c2c(O)c3c(c(-c4c5c(c(O)c6c(OC)cc(OC)cc46)CO[C@@H](C)[C@H]5O)c2c1)[C@H](O)[C@H](C)OC3,inactive: 115%
13,Cc1ccc(C=C2C(Cl)=C(Cl)C(Cl)=C2Cl)cc1,inactive: 91%
14,Cc1nc(C)c2c(c1C(F)(F)F)-c1ccccc1C2(F)F,inactive: 98.1%
15,CC1(C)C2CCC1(CS(=O)(=O)Nc1cccc(S(N)(=O)=O)c1)C(=O)C2 (stereo not given),inactive: 87.3%
16,Cn1nccc1NC(=O)Nc1ccc(Cl)cc1,inactive: 100%
17,CN(C(=S)Nc1cccnc1)c1ccc(O)cc1,inactive: 113%
18,Cc1cc(O)c(-c2cc(O)c(C)cc2O)cc1O,inactive: 109%
19,O=C(Nc1ccc2nc(-c3ccco3)c(-c3ccco3)nc2c1)NC1CC1,inactive: 92.4%
20,O=C(O)c1ccc(S(=O)(=O)c2ccc([N+](=O)[O-])cc2[N+](=O)[O-])cc1,inactive: 97.5%
21,c1coc(-c2nc3nc4ccccc4n3nc2-c2ccco2)c1,inactive: 81.1%
22,CN1CCN(C(CNC(=O)c2ccc(Br)o2)c2ccc(F)cc2)CC1 (stereo not given),inactive: 96.6%
23,COc1ccc(Cl)cc1NC(=O)CCS(=O)(=O)c1ccc(Br)cc1,inactive: 92.8%
24,CN(C)c1cc(Cl)c2nonc2c1N,inactive: 110%

# 5 of the compounds above, with bars between the fields:
row | Compound | viability
4 | O=C1N=NC2=C1c1c3ccccc3c(O)n1CC2 | inactive: 102%
20 | CCCCOc1cccc(C(=O)NC(=S)Nc2ccc(Cl)c(C(=O)O)c2)c1 | inactive: 103%
18 | Cc1c(N=C2C=C(Br)C(=O)C(Br)=C2)c(=O)n(-c2ccccc2)n1C | inactive: 102%
23 | Cc1ccc(C(CC(=O)NCc2ccco2)c2ccccc2)c(O)c1 (stereo not given) | inactive: 91.1%
8 | Cc1ccc2c(c1C)NC(C(=O)O)C1CC=CC21 (stereo not given) | inactive: 99.5% and inactive: 103%

# More compounds follow.

row,Compound,viability
1,CC(C)NC(=O)c1cc(-c2ccco2)nn1-c1ccc(Cl)cc1,inactive: 97.9%
2,O=C(N/N=C/C=C/c1ccco1)c1cccs1,inactive: 97.2%
3,CC(C)(C)c1ccc(C(=O)Oc2ccc3c(c2)OCC3=O)cc1,inactive: 122%
4,O=C(O)/C(=C/c1ccco1)NC(=O)c1ccccc1,inactive: 89.8%
5,COc1ccc(CNS(=O)(=O)c2cc(Br)cc3c2N(C(C)=O)C(C)C3)cc1 (stereo not given),inactive: 94.4%
6,O=c1oc2c3c4c(cc2s1)CCCN4CCC3,inactive: 92.3%
7,COc1ccc(/C=N/NC(=O)Cn2cnc3c2c(=O)n(C)c(=O)n3C)c(OC)c1OC,inactive: 102%
8,CC(OC(=O)c1ccc([N+](=O)[O-])o1)C(=O)NC1CCCCC1C (stereo not given),inactive: 106%
9,CC(/C=C/c1ccco1)=N\NC(=O)c1cccnc1,inactive: 84.8%
10,S=c1[nH]nc(-c2cccnc2)n1/N=C/C=C/c1ccco1,inactive: 97.7%
11,Cc1ccc2c(c1)C1C=CCC1C(C(=O)O)N2 (stereo not given),inactive: 104%
12,CCOC(=O)N1CCC(NC(=O)c2ccc(OC)c(CN3CC(=O)N4CCCC4C3=O)c2)CC1 (stereo not given),inactive: 114%
13,O=C(O)CC(Cn1cnnn1)c1ccccc1 (stereo not given),inactive: 110%
14,COC(=O)c1c(C)[nH]c(C=O)c1-c1ccccc1,inactive: 90.8%
15,CC1CCN(S(=O)(=O)c2ccc(C(=O)NCc3ccc4c(c3)OCO4)cc2)CC1,inactive: 89.1%
16,CCN(CC)c1ccc(NC2CC(=O)N(CCc3ccc(OC)cc3)C2=O)cc1 (stereo not given),inactive: 111%
17,N=C(c1cccc([N+](=O)[O-])c1)N1CCCCCC1,inactive: 109%
18,NC1=NC(=O)/C(=C\c2ccco2)S1,inactive: 90%
19,Cc1sc2nc(C)n(/N=C/c3ccccc3O)c(=O)c2c1C,inactive: 105%
20,Cc1ccc(NC(=O)CN(C)C(=O)c2cc(-c3ccco3)nc3ccccc23)cc1,inactive: 84.3%
21,Nc1c(C(=O)NC2CC2)sc2nc3c(c(-c4ccco4)c12)CC/C3=C/c1ccco1,inactive: 100%
22,COc1ccc(NC(=O)O/N=C/c2ccccc2Cl)cc1,inactive: 102%
23,O=C(Cc1cccs1)N/N=C/C=C/c1ccco1,inactive: 124%

# — PubChem BioAssay AID1117359 (Southern Research Institute, 2015)
